Experimental data: PubChem BioAssay AID1259254 (NCATS, 2017)
Screen: 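Finding genes that stop cells copying their DNA twice in one cycle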 (primary screen). Cells: human HCT116 colorectal cancer cells. Knock-down reagent: single siRNA against human genes. Time to read-out: 3 days. Measurement: 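Imaged Hoechst DNA stain sorts each cell into a cycle phase by DNA amount; per plate, G2 fraction set to 0% for non-targeting and 100% for GMNN siRNA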. Scale: G2 robust z-score: higher = more G2 cells, more excess DNA replication. Call rule: 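An siRNA counts as active if its G2 robust z-score lies at least 5 MADs above the screen median; here such calls match roughly 38% of GMNN control or more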.
In all, the deposit lists about 59,000 reagents; this is an unselected part. About 1,550 of them (2.6%) were called active. 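G2 share is only a proxy for re-replication; each gene was hit by three separate siRNAs, and active genes were retested.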 Further read-outs or replicates are left out here. Reagent sequences are not shown. Not given: the amount of reagent.

G2 robust z-score, by gene knocked down and reagent
KCTD7: SID160759458 1.96 inactive; SID160759461 0.18 inactive; SID160759462 0.641 inactive
TAC1: SID160717620 0.949 inactive; SID160717621 -0.257 inactive; SID160731810 0.365 inactive
CLDN5: SID160718182 0.0673 inactive; SID160724096 -0.588 inactive; SID160731844 -0.0802 inactive
OR10R2: SID160764708 1.83 inactive; SID160764709 1.3 inactive; SID160764710 0.476 inactive
BRINP2: SID160733679 -0.789 inactive; SID160746715 0.353 inactive; SID160746716 1.02 inactive
CXCR1: SID160775739 -0.582 inactive; SID160775740 -0.203 inactive; SID160775741 1.16 inactive
CDK20: SID160736544 -0.157 inactive; SID160736545 -0.293 inactive; SID160736546 1.41 inactive
RBIS: SID160767287 -0.262 inactive; SID160767288 -0.216 inactive; SID160767289 0.907 inactive
UNG: SID160718629 0.18 inactive; SID160718630 2.67 inactive; SID160718632 -1.48 inactive
STARD3: SID160729593 1.76 inactive; SID160729594 3.66 inactive; SID160729595 0.428 inactive

No new results follow: an excerpt of the list.
G2 robust z-score, by gene knocked down and reagent
CLDN5: SID160718182 0.0673 inactive; SID160724096 -0.588 inactive; SID160731844 -0.0802 inactive
OR10R2: SID160764708 1.83 inactive
